Data as given in article PMC9695596.
Results are given in words; binding and its absence hold for the method and conditions named. Binding seen in cells or lysates may run through a third protein. A result given as binding can be weak or reduced; the word gives no strength.

The chains behind the UniProt entries cited, without tags or fusion partners. Where a name states a change or a piece, a line headed by the entry shows the natural chain unless it says otherwise.
UniProt Q3UMR0: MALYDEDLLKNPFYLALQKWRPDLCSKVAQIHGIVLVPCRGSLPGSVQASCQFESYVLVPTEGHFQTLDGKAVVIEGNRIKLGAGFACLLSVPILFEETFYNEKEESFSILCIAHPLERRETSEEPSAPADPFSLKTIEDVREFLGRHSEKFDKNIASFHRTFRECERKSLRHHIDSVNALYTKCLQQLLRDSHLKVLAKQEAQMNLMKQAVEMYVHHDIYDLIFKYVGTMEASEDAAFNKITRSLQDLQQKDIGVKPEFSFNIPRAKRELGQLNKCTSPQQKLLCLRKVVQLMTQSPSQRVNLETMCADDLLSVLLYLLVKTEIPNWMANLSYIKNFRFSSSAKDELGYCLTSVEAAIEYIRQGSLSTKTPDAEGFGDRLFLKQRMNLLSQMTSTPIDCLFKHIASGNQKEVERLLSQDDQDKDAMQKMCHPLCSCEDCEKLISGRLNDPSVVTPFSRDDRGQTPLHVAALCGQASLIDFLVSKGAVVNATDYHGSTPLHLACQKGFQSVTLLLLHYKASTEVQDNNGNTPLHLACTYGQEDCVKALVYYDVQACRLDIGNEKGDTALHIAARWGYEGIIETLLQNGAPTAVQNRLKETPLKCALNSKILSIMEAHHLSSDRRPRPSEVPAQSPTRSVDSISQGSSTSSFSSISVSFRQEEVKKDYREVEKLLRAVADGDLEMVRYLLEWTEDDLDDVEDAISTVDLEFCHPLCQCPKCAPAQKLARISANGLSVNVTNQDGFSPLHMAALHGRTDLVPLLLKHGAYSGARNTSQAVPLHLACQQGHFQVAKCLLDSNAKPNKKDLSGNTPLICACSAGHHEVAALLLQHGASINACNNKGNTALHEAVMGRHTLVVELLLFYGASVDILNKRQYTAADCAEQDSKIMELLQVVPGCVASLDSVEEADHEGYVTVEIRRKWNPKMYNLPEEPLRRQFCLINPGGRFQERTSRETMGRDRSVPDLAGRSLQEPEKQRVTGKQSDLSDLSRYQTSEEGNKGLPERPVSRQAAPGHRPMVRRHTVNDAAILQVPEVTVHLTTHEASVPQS

Molecular target: T7-GST-Varp-ANKR1 (ankyrin repeat domain 1 of Varp) (UniProt Q3UMR0)
Experiment: pull-down; T7-GST-ANKR1 on glutathione-Sepharose beads incubated 1 h at 4 °C with lysates of WT or Hps4-KO B16-F1 cells (50 mM HEPES-KOH pH 7.2, 150 mM NaCl, 1 mM MgCl2, 1% Triton X-100); bound proteins detected by immunoblotting; only the target purified

binding: binds
B1: Rab32 (endogenous, active GTP-bound form) (protein, UniProt Q9CZE3 1-223)
chain: MAGEGLGQQGASATAAPETREHLFKVLVIGELGVGKTSIIKRYVHQLFSQHYRATIGVDFALKVLNWDSRTLVRLQLWDIAGQERFGNMTRVYYKEALGAFVVFDISRSSTFDAVLKWKNDLDSKVHLPNGSPIPAVLLANKCDQKKDNSQSPSQMDQFCKDHGFTGWFETSAKDNINIDEATRFLVENMLANQQSFPSEEIDLDRIKLVEEPPTTKPRSQCC
